Laboratory results published in PubChem BioAssay AID2685 (National Center for Advancing Translational Sciences (NCATS), 2010).
The campaign covered roughly 320,000 compounds. About 2,100 (0.66%) were called active. Inconclusive results, whose numbers are uncertain, are shown with a selection of clear calls. Calls follow the shape of the dose curve; as a rule, active = well fitted inhibition curve with a large enough effect in the signal ratio, with a control signal flat (not every such curve was filed as active); inconclusive = small, poorly fitted or top-dose-only effect, or effect the other way, or a change in a side signal; inactive = flat fitted curve, though single readings scatter; the % refers to the signal ratio. Where the call is inconclusive, the potency comes from a doubtful curve fit.

test: qHTS Assay for Lipid Storage Modulators in Drosophila S3 Cells; settings: BODIPY lipid droplet fluorescence, 18-24 h, cells fed with added oleic acid; lipid storage change, negative = inhibition: at 46.1 µM (top of the series) unless noted
Procedure, shortened: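 Drosophila S3 cells got compounds at several concentrations plus oleic acid (400 uM solution). Laser-scanning cytometry with 488 nm excitation read lipid droplets at 500-530 nm and cells at 575-640 nm. Percent activity was relative to 20 uM Triacsin C.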
% is scaled to controls: 0 for no effect and ±100 for the full control effect; potency is read from the fitted curve at half-maximal effect.

Row | Compound | lipid storage change, negative = inhibition | Potency
1 | Oc1ccc(Cl)cc1CNc1nccs1 | inconclusive: 42.1% | –
2 | COCCn1c(COc2ccccc2)nnc1SCC(N)=O | inconclusive: -7.37% | –
3 | COc1ccc(/C=C/C(=O)c2ccncc2)c2ccccc12 | – | inconclusive: 29.1 µM [falling, single point]
4 | O=C(OC1CCOC1=O)c1cc(-c2ccc(Cl)cc2)nc2ccccc12 (stereo unspecified) | inconclusive: 25.7% | –
5 | Cc1ccc(S(=O)(=O)NCC(=O)OCc2cc(=O)oc3cc(C)ccc23)cc1 | inconclusive: 0.349% | –
6 | CC(=O)Nc1nc(CC(=O)c2ccccc2)cs1 | – | inconclusive: 0.731 µM [rising, partial curve]
7 | O=C(COC(=O)/C=C/c1ccccc1)Nc1cccc(Oc2ccccc2)c1 | – | inconclusive: 0.116 µM [falling, full curve, poor fit]
8 | O=C(Nc1ccc(Cl)cc1Cl)NC1CCCC1 | inconclusive: 4.27% | –
9 | Cc1ccc2c(c1)C1CN(C)CCC1N2C(=S)Nc1ccc(OC(F)F)cc1 (stereo unspecified) | – | inconclusive: 2.06 µM [activator, partial curve]
10 | CN(C)S(=O)(=O)c1cc(C(=O)O)c(NC2CCCCC2)cc1Cl | – | inconclusive: 1.64 µM [falling, partial curve]
11 | CCOC(=O)N1CCN(CC(O)c2c[nH]c3ccccc23)CC1 (stereo unspecified) | inactive | –
12 | CCOC(=O)C1(C)NC(c2cccs2)C2C(=O)N(c3ccc(C)cc3)C(=O)C21 (stereo unspecified) | inconclusive: 8.78% | –
13 | NC(=O)c1ccccc1NC(=O)COc1ccc(Cl)cc1 | inconclusive: 14.5% | –
14 | COCc1cc(C)nc(N/N=C/c2ccc(-c3ccc(Cl)cc3[N+](=O)[O-])o2)c1C#N | – | inconclusive: 13 µM [activator, partial curve, poor fit]
15 | NNC(=O)c1sc(-c2ccccc2)cc1N | inconclusive: 0.697% | –
16 | Cc1cccc(N(C(=O)c2snc(C(N)=O)c2N)C(C(=O)NCC2CCCO2)c2ccc(N(C)C)cc2)c1 (stereo unspecified) | – | inconclusive: 7.31 µM [activator, partial curve, poor fit]
17 | CCCCC(CC(C)O)c1n[nH]c(=S)n1-c1ccccc1 (stereo unspecified) | inconclusive: 22.2% | –
18 | CCn1c(=O)n(CC)c2cc(S(=O)(=O)N3CCOCC3)ccc21 | inconclusive: -64.5% | –
19 | Cc1ccc(OCC(=O)N2CCc3ccccc3C2)c(Br)c1 | – | inconclusive: 0.651 µM [falling, full curve, poor fit]
20 | CCOC(=O)c1ccc(-c2ccc(/C=N/NC(=O)CN(c3ccccc3Cl)S(C)(=O)=O)o2)cc1 | inconclusive: -28.2% | –
21 | N#CCn1c(CN2CCCC2)nc2ccccc2c1=O | inconclusive: 29.6% | –
22 | CCOc1ccc(-n2c(=O)c3c4c(sc3n(CC(=O)NCc3ccco3)c2=O)CCC4)cc1 | inconclusive: 4.38% | –
23 | S=C(NCc1ccco1)N1CCN(c2cccc(Cl)c2)CC1 | – | inconclusive: 0.146 µM [falling, full curve]
24 | CCCSc1nc(O)c(C2OC(=O)c3c2ccc(OC)c3OC)c(=O)n1C (stereo unspecified) | – | inconclusive: 3.26 µM [falling, single point]
25 | COc1ccccc1N1CCN(C(=O)C2CCN(S(=O)(=O)c3ccc(F)cc3)CC2)CC1 | inconclusive: -13.8% | –
26 | CC(C(=O)N(C)C1CCCCC1)N1CCC(C(N)=O)CC1 (stereo unspecified) | inconclusive: -62.7% | –

12 of these compounds, reformatted:
Row	Compound	lipid storage change, negative = inhibition	Potency
15	NNC(=O)c1sc(-c2ccccc2)cc1N	inconclusive: 0.697%	–
16	Cc1cccc(N(C(=O)c2snc(C(N)=O)c2N)C(C(=O)NCC2CCCO2)c2ccc(N(C)C)cc2)c1 (stereo unspecified)	–	inconclusive: 7.31 µM [activator, partial curve, poor fit]
17	CCCCC(CC(C)O)c1n[nH]c(=S)n1-c1ccccc1 (stereo unspecified)	inconclusive: 22.2%	–
18	CCn1c(=O)n(CC)c2cc(S(=O)(=O)N3CCOCC3)ccc21	inconclusive: -64.5%	–
19	Cc1ccc(OCC(=O)N2CCc3ccccc3C2)c(Br)c1	–	inconclusive: 0.651 µM [falling, full curve, poor fit]
20	CCOC(=O)c1ccc(-c2ccc(/C=N/NC(=O)CN(c3ccccc3Cl)S(C)(=O)=O)o2)cc1	inconclusive: -28.2%	–
21	N#CCn1c(CN2CCCC2)nc2ccccc2c1=O	inconclusive: 29.6%	–
22	CCOc1ccc(-n2c(=O)c3c4c(sc3n(CC(=O)NCc3ccco3)c2=O)CCC4)cc1	inconclusive: 4.38%	–
23	S=C(NCc1ccco1)N1CCN(c2cccc(Cl)c2)CC1	–	inconclusive: 0.146 µM [falling, full curve]
24	CCCSc1nc(O)c(C2OC(=O)c3c2ccc(OC)c3OC)c(=O)n1C (stereo unspecified)	–	inconclusive: 3.26 µM [falling, single point]
25	COc1ccccc1N1CCN(C(=O)C2CCN(S(=O)(=O)c3ccc(F)cc3)CC2)CC1	inconclusive: -13.8%	–
26	CC(C(=O)N(C)C1CCCCC1)N1CCC(C(N)=O)CC1 (stereo unspecified)	inconclusive: -62.7%	–

Further structures.

Row | Compound | lipid storage change, negative = inhibition | Potency
27 | CCOC(=O)c1sc2ccc(S(=O)(=O)N3CCOCC3)cc2c1N | inactive | –
28 | CCC1(CC)Cc2ccccc2-c2nc3ccccc3c(=O)n21 | inconclusive: -1.08% | –
29 | CCCN1CCN(C(=O)c2cn(CC(C)C)c(=O)c3cc(OC)c(OC)cc23)CC1 | inconclusive: -94.8% | –
30 | COc1cc2cc(C(=O)N3CCc4ccccc4C3)[nH]c2cc1OC | inconclusive: -15.8% | –
31 | Cn1cncc1C#Cc1ccc2cc(CCO)oc(=O)c2c1 | – | active: 1.3 µM
32 | OCCC1CN(Cc2nc3c(s2)CCCC3)CCN1CCc1ccccc1 (stereo unspecified) | inconclusive: 13% | –
33 | O=C(Nc1ccsc1C(=O)N1CCCCCC1)c1ccccc1 | inconclusive: -6.84% | –
34 | N=c1ccn(Cc2ccc(Cl)c(Cl)c2)cc1 | – | inconclusive: 29.1 µM [cytotoxic, single point]
35 | COc1cc(C(=O)OCCc2cc3ccccc3c(=O)o2)cc(OC)c1OC | inconclusive: 7.45% | –
36 | O=S(=O)(NCC1CCCO1)c1ccc(NS(=O)(=O)c2ccc(F)cc2)cc1 (stereo unspecified) | – | inconclusive: 29.1 µM [activator, single point]
37 | Cc1ccccc1CNC(=O)c1ccc2ccccc2n1 | – | inconclusive: 18.4 µM [activator, partial curve]
38 | O=C(OCC(=O)N1CCN(C(=O)c2ccco2)CC1)c1ccc(Cl)c(Cl)c1 | inconclusive: 54.9% | –
39 | O=C(c1ccc(NC(=O)C2(c3ccccc3)CCCC2)cc1)N1CCOCC1 | inconclusive: 35.1% | –
40 | CC(=O)O[C@H]1CC[C@@]2(C)[C@@H](CC[C@H]3[C@@H]4CC[C@H](C(C)O)[C@@]4(C)CC(=O)[C@@H]32)C1 (stereo partly specified) | inconclusive: 11.2% | –
41 | Cc1ccc(NC(=O)CCn2cccc2)cc1Cl | inconclusive: 19.9% | –
42 | O=C(NCCN1CCN(c2ccccc2)CC1)Nc1ccccc1Cl | inconclusive: 13.3% | –
43 | O=C(/C=C/c1ccccc1[N+](=O)[O-])NCc1ccccc1Cl | inconclusive: 11.8% | –
44 | COc1ccccc1N1CCN(c2ccc(-c3ccccc3)nn2)CC1 | inconclusive: -53.9% | –
45 | COc1ccc2[nH]cc(CCNS(=O)(=O)c3ccc(C)cc3)c2c1 | inactive | –
46 | S=C(NCCc1ccc(Cl)cc1)NCc1ccco1 | inconclusive: 44.8% | –
47 | CC(C)OC(=O)/C(=C\c1cccc2ccccc12)NC(=O)c1ccccc1 | inconclusive: -24.2% | –
48 | COc1ccc(C2=NCC(CSc3nnnn3C)S2)cc1 (stereo unspecified) | inconclusive: 17% | –
49 | Cc1ccc(Cn2c(=N)n(CC(O)c3ccco3)c3ccccc32)cc1 (stereo unspecified) | – | inconclusive: 29.1 µM [falling, single point]
50 | CCC1(c2ccc(Cl)cc2)NC(=O)N(Cc2ccc(C(=O)OC)cc2)C1=O (stereo unspecified) | inconclusive: -8.37% | –
51 | O=[N+]([O-])c1cccc(CN2CCCCCC2)c1 | inconclusive: -6.07% | –
